Laboratory results published in patent publication US20250345292A1, “COMBINATION OF ALBUTEROL AND BUDESONIDE FOR THE TREATMENT OF ASTHMA” (priority 2022, published 2025).

Test system: patients with uncontrolled moderate-to-severe asthma
Test: Phase 3 clinical trial, as-needed albuterol-budesonide fixed dose combination vs. albuterol alone: efficacy and study medication use
Assay type: in vivo, human

CC(C)(C)NCC(O)c1ccc(O)c(CO)c1 (centres unmarked) [albuterol 180-μg, 4-(2-(tert-butylamino)-1-hydroxyethyl)-2-(hydroxymethyl) phenol]
Average daily as-needed use (human, in vivo): 2.8 inhalations per day
doses of study medication per day (one dose = 2 inhalations): ~1.4 doses of study medication per day

The amount applied is not stated for every result.
